Assay results taken from US20230357292A1, “MULTI-COORDINATE GOLD-PHOSPHINE COMPOUNDS AND METHOD OF USE” (University of Kentucky Research Foundation, priority 2020, published 2023).

Experiments:
[1] = test system: MDA-MB-231 cells; settings: 1 μM for 12 h
[2] = test system: MDA-MB-231 cells; settings: 1 μM, 12 h

[Cl-].[Cl][Au-]1([c]2ccccc2-c2ccccn2)[P+](c2ccccc2)(c2ccccc2)c2ccccc2[P+]1(c1ccccc1)c1ccccc1 [AuPhos-89, (2-phenylpyridine)[1,2-Bis(diphenylphosphino)benzene]gold(III) Dichloride]
differentially expressed genes (DEG) [1]: 922 | downregulated genes [1]: 94 | upregulated genes [1]: 83 | downregulated proteins ([2]; ratio less than 1/1.5): 88 | upregulated proteins ([2]; ratio over 1.5): 75 | differentially expressed proteins ([2]; ratio over 1.5 or less than 1/1.5): 163
